# Experimental data taken from PubChem BioAssay AID1508600 (Functional Genomics Laboratory (NCATS/FGL), 2020).
# Out of some 53,000 sequences screened, about 3,700 (7%) were called active.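 How the source made its calls: active means gene knockdowns whose robust z-score for IL-1 alpha signal is at least 2 or at most -2, so actives lie on both sides; inactive means the rest.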 Some of the results follow.
# Test: Components of the Cytosolic LPS Sensing Pathway: Gene Identification via Genome-wide siRNA Screen;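 further: robust z of the log signal after scaling to non-targeting control siRNA wells of the plate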
# Details: RAW264.7 macrophages, IL-1a HTRF, actives lie on both sides, screened at 100 nM (by protocol), cells primed 5 h with Pam3CSK4 first
# Summary of the method: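 IL-1a HTRF of supernatants after 24 hour LipidA transfection of Pam3CSK4-primed (5 hours) RAW264.7 cells, 48h post-siRNA transfection (100 nM). Scores: percent of plate negative-control median, then log-based robust z-score.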
row,Sequence,z-score
1,GGGCAAAAGUUUAGAAAUCTT against Zfp697,inactive: 0.391
2,GGUUGGUGGUGCAGAUAGATT against Krt31,inactive: 0.0397
3,CCGUUCUCCAGGACUCUUUTT against Trir,inactive: -1.9
4,GGCAUAGGUAUAUUUGAGUTT against Lep,inactive: -0.187
5,CCUGAUUAAUGUGACUGGGTT against Dbr1,inactive: 0.347
6,GGUUUGGCAAACAUUUCAUTT against Akr1c20,active: 2.02
7,GCGUAUAGUUUCGAGAAAUTT against Mettl8,inactive: 0.46
8,GGCAUGAACAACAUUACCATT against Zfp811,inactive: -1.25
9,GGAGAUGCAGAAAAUGAAUTT against Prim1,inactive: 0.0789
10,GGAAUUUGGUUAAAUGGAATT against Dio2,inactive: -1.18
11,GGCCCAAAGUUUAUCCAAGTT against Rasl12,inactive: 1.78
12,GGUUACCAUCAUUUAGAGATT against Pot1b,inactive: -1.27
13,CCAUAUCAGUUCAUUCCAATT against Dok7,inactive: -0.98
14,GGAUUUUCUACUCUAAAGATT against Tnfrsf19,inactive: -0.226
15,GGGCCUUUGAAAACACCCUTT against Dgkd,inactive: 0.363
16,CCUACGAGUUCAUCGUGUATT against Slc25a33,inactive: 0.187
17,GGAACUUUGCCAUCUCUCCTT against Insrr,inactive: -0.0829
18,GGUGGUUAUGAUCUAUGAUTT against Dazap1,inactive: -1.43
19,GGAACUUCCUGAGGAUAAGTT against Ccdc28a,inactive: 0.0804
20,GGACUUCUACCACUGGAGGTT against Alox12b,inactive: -0.39
21,GCCAGUACCCAUAUGACAGTT against Irx4,inactive: 0.698
22,GGACAUGUCCGAAUACUACTT against Pdss1,active: 2.34
23,CCAAAUUGUCUCUUCUAACTT against Dnah1,inactive: 0.0269
24,GGUGAAGCAGAUCAACAAGTT against Stmn2,inactive: 0.107
25,GGAGUAUCGGUGACUACGGTT against Chst9,inactive: -1.34
26,GGUUAUCUUCUCUGUAACGTT against Nsun3,inactive: 0.496
27,GGCCAUUGUGACAAACAGATT against Ltf,inactive: -0.69

# Part of the list above, with bars between the fields:
row | Sequence | z-score
10 | GGAAUUUGGUUAAAUGGAATT against Dio2 | inactive: -1.18
11 | GGCCCAAAGUUUAUCCAAGTT against Rasl12 | inactive: 1.78
12 | GGUUACCAUCAUUUAGAGATT against Pot1b | inactive: -1.27
13 | CCAUAUCAGUUCAUUCCAATT against Dok7 | inactive: -0.98

# Continuation.

row,Sequence,z-score
1,GCCAGCUAAAGAAGUCUAUTT against Gpr17,active: 2.81
2,CGACCCUAAUCUGGUGAACTT against Mfap5,inactive: -0.283
3,GGCCAUGUGUAAUUGAAGATT against 9230112E08Rik,inactive: 0.216
4,GGACCAGAAACGCAUGCUUTT against Maml3,inactive: -0.762
5,GGCAUUUUCUAAUGGCUAUTT against Spef2,inactive: 1.33
6,GGUAUCAAUAAAGUUGUUGTT against Stk11ip,inactive: 1.09
7,GGUAACCAGUCAACACCCUTT against Cd19,inactive: 0.841
8,GGUGGCUCUCCAAGUUCUATT against Uchl4,inactive: -0.279
9,GGAAGAGUGUUUAAACUAUTT against Kbtbd8,inactive: -0.591
10,GCGAGAACCAAGACCUUUCTT against Tyms,inactive: -0.248
11,GGCUGUAAUUUUGAACAAUTT against Rnf17,inactive: -1.42
12,GGACAAAGUCACAGAGUCCTT against Slc26a5,active: -2.08
13,GGAGAAAAUCAAGGUGUUATT against Cux2,inactive: -0.361
14,CGACCACUUGGUGAUGCUCTT against Rcc1,inactive: 0.964
15,GGUGAAGCAGAAAGAAAACTT against Pank4,inactive: -0.477
16,GGAACCAGAAAGGACAGUCTT against H2-Eb1,inactive: 0.538
17,GGAACCUAGAGAAAAAGAATT against Iyd,inactive: -1.18
18,GGAAUCAAAUUUGAUGCCATT against Cckar,inactive: 0.479
19,GCUAGCACUAAGUGAACCUTT against Ppp1r21,inactive: 1.25
20,GGAGAUCGUGGAGAUGUACTT against Myh9,inactive: -0.13
21,GGCAAACUCUAUCUCCAAATT against Ier5l,inactive: 0.252
22,GCUACAUCUGCUUCCUUUUTT against Olfr623,inactive: -0.311
23,GCCUGCAUUUACAAGUACUTT against Itm2a,inactive: 0.646
24,GGUGAUCAUAUAAGUUAGUTT against Ankrd39,inactive: -0.874
25,GGAGCAUCUAUGAUUACAATT against Iqcg,active: 3.24
26,GGAGGUCUACAUUUAUUAATT against Dera,inactive: 1.31
27,UCCAUUUCGACCCUUGUACTT against Romo1,active: -2.88
